Data source: PubChem BioAssay AID1053208 (Peter MacCallum Cancer Centre, 2014)
Assay: 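Genes whose silencing cuts survival of bone tumour cells only with doxorubicin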 (primary screen). Cells: mouse osteosarcoma cells, early-passage culture from an engineered mouse model of fibroblastic bone tumour. Knock-down reagent: siRNA pool against mouse genes, 40 nM. Time to read-out: about 120 h (48 h before drug, then 72 h with drug). Conditions: doxorubicin 100 nM for 72 h, roughly 30-40% inhibitory dose. Read-out: 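Luminescent ATP signal taken as viability with or without 100 nM doxorubicin for 72 h; mean of two wells set against non-targeting siRNA and turned into robust z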. Scale: viability z-score with doxorubicin: higher = more viable cells under doxorubicin; viability z-score without drug: higher = more viable cells with knock-down alone. Call rule: 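Called active if knock-down leaves viability unchanged without drug (z within -2 to 2) but lowers it with doxorubicin (z at or under -2)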.
Here is an unselected part of about 17,000 reagents. In the full data, 788 (4.7%) are marked active. 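Calls rest on z-score classes alone; an extra cut-off of viability at most 70% of control was not applied to them.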 A number with no mark means an inactive call. Not all columns of the deposit are shown.

Gstz1 — combined z-score class: no change with or without drug; viability z-score with doxorubicin: -1.46; viability z-score without drug: -0.84
4933431E20Rik — combined z-score class: no change with or without drug; viability z-score with doxorubicin: -0.11; viability z-score without drug: 0.51
Ggps1 — combined z-score class: no change with or without drug; viability z-score with doxorubicin: 0.11; viability z-score without drug: 0
Pip5kl1 — combined z-score class: no change with or without drug; viability z-score with doxorubicin: -0.22; viability z-score without drug: 1.18
Nav2 — combined z-score class: high cell count without drug only; viability z-score with doxorubicin: 0; viability z-score without drug: 2.7
Thap7 — combined z-score class: no change with or without drug; viability z-score with doxorubicin: 0.9; viability z-score without drug: 0.51
Atp6v1d — combined z-score class: no change with or without drug; viability z-score with doxorubicin: -1.12; viability z-score without drug: 0.17
Mnat1 — combined z-score class: no change with or without drug; viability z-score with doxorubicin: 1.46; viability z-score without drug: 1.01
Herc6 — combined z-score class: low cell count without drug only; viability z-score with doxorubicin: -0.45; viability z-score without drug: -2.02
Map2k1 — combined z-score class: no change with or without drug; viability z-score with doxorubicin: 0.34; viability z-score without drug: 0.51
Sprr4 — combined z-score class: no change with or without drug; viability z-score with doxorubicin: 1.35; viability z-score without drug: -0.17
Zdhhc13 — combined z-score class: no change with or without drug; viability z-score with doxorubicin: 0.67; viability z-score without drug: -0.17

Laid out differently: results already given.
| gene knocked down | combined z-score class | viability z-score with doxorubicin | viability z-score without drug |
| --- | --- | --- | --- |
| 4933431E20Rik | no change with or without drug | -0.11 | 0.51 |
| Ggps1 | no change with or without drug | 0.11 | 0 |

The results go on.
Lamc2 — combined z-score class: high cell count without drug only; viability z-score with doxorubicin: 1.69; viability z-score without drug: 3.2
Or2y1g — combined z-score class: low cell count without drug only; viability z-score with doxorubicin: -1.8; viability z-score without drug: -2.19
Mipep — combined z-score class: no change with or without drug; viability z-score with doxorubicin: -0.11; viability z-score without drug: 0
Ddx24 — combined z-score class: no change with or without drug; viability z-score with doxorubicin: 0; viability z-score without drug: 0.51
Il22ra2 — combined z-score class: no change with or without drug; viability z-score with doxorubicin: 0.11; viability z-score without drug: 0.34
Gm16897 — combined z-score class: no change with or without drug; viability z-score with doxorubicin: 1.01; viability z-score without drug: 0.84
Pole2 — combined z-score class: low cell count with doxorubicin only (active); viability z-score with doxorubicin: -3.37; viability z-score without drug: -0.84
